The record followed here is publication PMC7293280.

The chains behind the UniProt entries cited, without tags or fusion partners. Where a name states a change or a piece, a line headed by the entry shows the natural chain unless it says otherwise.
UniProt Q02248: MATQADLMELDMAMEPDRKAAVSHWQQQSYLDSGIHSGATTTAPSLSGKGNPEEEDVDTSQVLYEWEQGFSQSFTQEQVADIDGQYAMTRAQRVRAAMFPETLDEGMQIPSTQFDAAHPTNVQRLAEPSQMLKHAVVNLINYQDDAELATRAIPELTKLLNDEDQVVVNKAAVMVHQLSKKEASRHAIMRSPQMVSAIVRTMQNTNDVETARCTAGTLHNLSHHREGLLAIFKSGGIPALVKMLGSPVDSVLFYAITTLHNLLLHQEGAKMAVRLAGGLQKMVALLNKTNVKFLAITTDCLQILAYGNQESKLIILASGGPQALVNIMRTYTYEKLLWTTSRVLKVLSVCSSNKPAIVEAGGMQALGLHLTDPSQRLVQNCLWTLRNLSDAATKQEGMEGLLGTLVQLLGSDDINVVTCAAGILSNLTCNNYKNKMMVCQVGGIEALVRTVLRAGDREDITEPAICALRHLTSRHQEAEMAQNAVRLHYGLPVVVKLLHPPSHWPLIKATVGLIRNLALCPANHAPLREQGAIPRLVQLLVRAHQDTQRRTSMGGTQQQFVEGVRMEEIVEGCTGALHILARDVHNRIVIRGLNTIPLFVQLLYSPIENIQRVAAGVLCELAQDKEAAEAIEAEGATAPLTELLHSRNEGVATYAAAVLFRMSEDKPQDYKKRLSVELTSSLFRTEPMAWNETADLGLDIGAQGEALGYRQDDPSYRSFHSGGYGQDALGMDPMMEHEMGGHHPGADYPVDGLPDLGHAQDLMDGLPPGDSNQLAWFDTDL

The target of test [1] is T1, ADNP (in HEK293T cells, partner of the β-catenin fragments) (UniProt Q9Z103).
T1 sequence: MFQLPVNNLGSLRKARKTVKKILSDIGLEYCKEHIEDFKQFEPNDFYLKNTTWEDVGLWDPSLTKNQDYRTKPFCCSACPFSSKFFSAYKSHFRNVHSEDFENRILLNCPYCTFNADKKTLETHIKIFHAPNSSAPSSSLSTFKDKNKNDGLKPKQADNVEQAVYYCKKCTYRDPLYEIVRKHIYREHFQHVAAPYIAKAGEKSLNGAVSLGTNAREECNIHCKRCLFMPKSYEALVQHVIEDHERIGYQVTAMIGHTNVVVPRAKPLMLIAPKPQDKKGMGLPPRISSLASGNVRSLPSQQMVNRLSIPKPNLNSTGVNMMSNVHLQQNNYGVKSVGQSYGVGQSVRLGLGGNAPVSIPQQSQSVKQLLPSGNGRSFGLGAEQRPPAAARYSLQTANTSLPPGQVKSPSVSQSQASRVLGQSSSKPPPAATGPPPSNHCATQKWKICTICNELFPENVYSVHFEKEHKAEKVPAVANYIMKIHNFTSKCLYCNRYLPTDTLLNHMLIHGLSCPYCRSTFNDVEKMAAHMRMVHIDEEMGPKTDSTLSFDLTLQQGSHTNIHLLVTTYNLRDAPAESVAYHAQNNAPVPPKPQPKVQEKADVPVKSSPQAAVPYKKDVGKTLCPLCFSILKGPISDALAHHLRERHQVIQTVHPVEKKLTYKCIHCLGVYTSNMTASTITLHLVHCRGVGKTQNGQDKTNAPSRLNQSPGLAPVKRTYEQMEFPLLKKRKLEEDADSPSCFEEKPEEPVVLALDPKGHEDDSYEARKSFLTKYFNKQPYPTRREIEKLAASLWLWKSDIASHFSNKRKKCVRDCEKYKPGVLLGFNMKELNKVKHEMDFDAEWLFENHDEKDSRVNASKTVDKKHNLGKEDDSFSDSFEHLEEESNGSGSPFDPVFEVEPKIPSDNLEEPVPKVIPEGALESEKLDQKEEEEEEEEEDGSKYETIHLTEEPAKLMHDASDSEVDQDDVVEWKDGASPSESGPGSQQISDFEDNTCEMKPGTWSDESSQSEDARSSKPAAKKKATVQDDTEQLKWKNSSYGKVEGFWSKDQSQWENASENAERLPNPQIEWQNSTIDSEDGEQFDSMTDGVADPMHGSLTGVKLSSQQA
As to the kind of experiment: co-IP; plasmids co-transfected into HEK293T cells; lysates, Dynabeads Protein G with anti-FLAG, anti-HA or anti-MYC antibody, overnight 4 °C, washes PBS 0.1% Tween.

In test [2] the target is T2, 3×FLAG-ADNP (mouse) (UniProt Q9Z103).
T2 sequence: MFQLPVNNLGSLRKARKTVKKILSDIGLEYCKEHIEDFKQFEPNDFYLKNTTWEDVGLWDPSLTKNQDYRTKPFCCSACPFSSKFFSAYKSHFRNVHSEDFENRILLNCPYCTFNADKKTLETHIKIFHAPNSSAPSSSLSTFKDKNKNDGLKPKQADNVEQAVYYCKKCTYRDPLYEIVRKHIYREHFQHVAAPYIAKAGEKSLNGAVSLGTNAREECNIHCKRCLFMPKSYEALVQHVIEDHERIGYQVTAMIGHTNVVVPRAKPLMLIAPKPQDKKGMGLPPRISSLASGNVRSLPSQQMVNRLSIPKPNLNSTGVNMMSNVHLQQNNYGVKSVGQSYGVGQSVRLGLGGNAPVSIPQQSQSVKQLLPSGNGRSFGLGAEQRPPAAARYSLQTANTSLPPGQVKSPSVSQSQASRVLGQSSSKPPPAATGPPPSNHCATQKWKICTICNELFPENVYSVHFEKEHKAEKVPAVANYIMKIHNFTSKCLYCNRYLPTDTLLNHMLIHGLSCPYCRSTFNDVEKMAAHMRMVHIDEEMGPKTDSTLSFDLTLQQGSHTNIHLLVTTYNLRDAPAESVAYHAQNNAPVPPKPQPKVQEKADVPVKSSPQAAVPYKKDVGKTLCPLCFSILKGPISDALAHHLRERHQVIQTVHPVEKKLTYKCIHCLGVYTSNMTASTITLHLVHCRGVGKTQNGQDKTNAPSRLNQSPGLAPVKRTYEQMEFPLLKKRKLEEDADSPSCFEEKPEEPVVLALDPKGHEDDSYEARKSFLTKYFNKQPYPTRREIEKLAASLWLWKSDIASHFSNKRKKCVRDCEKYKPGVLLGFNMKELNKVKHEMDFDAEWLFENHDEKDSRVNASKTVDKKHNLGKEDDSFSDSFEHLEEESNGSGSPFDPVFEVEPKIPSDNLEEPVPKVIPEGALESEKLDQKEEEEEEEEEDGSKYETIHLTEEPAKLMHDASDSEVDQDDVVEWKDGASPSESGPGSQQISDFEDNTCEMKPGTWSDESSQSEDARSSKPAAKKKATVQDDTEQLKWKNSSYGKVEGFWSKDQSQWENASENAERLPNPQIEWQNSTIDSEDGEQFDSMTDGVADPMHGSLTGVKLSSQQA
The experiment in a line: co-IP; lysate of day 3 NPCs from 3×FLAG-ADNP overexpressing Adnp−/− ESCs; FLAG IP, WB β-catenin; Dynabeads Protein G.

The target in test [3] is T3, ADNP (Activity Dependent Neuroprotective Protein), endogenous (mouse (endogenous in mouse R1 ESCs)) (UniProt Q9Z103).
T3 sequence: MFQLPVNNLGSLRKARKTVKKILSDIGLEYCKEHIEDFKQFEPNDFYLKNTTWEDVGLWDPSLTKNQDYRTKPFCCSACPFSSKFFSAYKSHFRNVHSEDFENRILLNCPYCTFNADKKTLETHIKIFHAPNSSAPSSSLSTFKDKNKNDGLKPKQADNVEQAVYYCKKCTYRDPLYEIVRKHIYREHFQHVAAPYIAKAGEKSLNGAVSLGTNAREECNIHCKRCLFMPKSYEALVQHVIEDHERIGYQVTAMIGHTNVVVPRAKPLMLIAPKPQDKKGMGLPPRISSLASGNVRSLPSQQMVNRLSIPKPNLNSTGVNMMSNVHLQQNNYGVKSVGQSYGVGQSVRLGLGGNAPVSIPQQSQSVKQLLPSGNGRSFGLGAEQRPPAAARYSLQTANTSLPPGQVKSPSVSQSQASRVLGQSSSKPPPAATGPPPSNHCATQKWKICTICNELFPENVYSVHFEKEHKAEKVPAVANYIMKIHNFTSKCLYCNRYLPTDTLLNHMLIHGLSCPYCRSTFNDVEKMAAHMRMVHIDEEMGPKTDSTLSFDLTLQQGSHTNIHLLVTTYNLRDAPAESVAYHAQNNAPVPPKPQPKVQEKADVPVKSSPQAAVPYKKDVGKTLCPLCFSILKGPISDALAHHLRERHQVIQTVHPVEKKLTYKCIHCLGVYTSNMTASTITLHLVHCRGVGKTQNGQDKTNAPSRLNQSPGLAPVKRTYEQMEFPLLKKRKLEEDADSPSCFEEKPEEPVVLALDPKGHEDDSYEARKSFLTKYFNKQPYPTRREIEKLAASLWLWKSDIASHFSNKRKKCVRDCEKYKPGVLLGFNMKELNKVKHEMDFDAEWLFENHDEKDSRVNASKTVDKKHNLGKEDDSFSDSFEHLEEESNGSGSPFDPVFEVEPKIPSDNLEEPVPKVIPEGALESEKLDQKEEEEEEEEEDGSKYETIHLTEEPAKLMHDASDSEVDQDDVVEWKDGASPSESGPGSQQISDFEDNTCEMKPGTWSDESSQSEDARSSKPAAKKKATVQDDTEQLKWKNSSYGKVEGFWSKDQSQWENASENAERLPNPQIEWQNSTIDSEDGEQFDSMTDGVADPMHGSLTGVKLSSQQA
The experiment in a line: co-IP; endogenous proteins; lysates of mouse ESCs and of day 3 ESC-derived neurospheres; Dynabeads Protein G with antibody or IgG, overnight 4 °C, washes PBS 0.1% Tween; IP ADNP then WB β-catenin and IP β-catenin then WB ADNP.

In test [4] the target is T4, FLAG-Adnpa (zebrafish (Danio rerio)) (UniProt F1QLG5).
T4 sequence: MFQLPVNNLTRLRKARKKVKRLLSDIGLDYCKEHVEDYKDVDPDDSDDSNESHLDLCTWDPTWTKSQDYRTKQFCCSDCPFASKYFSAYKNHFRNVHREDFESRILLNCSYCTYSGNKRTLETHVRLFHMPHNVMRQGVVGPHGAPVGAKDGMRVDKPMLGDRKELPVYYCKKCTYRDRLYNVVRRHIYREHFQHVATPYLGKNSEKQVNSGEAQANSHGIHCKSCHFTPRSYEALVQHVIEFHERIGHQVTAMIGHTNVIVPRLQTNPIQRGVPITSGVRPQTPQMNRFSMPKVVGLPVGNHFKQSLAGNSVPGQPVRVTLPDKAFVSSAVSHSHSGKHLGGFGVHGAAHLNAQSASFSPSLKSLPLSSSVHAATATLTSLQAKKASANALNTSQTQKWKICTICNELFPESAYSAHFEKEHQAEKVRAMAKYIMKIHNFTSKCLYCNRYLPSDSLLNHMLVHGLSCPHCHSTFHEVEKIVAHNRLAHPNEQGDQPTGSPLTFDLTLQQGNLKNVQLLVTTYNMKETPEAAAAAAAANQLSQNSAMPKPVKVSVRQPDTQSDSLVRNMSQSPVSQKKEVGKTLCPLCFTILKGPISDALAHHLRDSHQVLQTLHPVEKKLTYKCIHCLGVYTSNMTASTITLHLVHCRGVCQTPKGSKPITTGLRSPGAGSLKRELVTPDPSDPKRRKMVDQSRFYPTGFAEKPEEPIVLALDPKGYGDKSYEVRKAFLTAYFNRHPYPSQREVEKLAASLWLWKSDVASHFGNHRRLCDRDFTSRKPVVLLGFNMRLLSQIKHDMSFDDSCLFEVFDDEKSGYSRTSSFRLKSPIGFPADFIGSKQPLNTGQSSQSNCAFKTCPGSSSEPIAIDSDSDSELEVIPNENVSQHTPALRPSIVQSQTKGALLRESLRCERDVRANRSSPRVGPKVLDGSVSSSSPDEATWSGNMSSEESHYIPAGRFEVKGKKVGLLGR
The experiment in a line: co-IP; lysate of 24 hpf adnpa−/− adnpb−/− zebrafish embryos injected with mRNA encoding FLAG-Adnpa.

For test [5], the target named is HA-β-catenin (UniProt Q02248). The experiment in a line: co-IP; competitive protein-binding assay: increasing dose of FLAG-ADNP plasmid co-transfected with MYC-AXIN1 (or APC) and HA-β-catenin into HEK293T; lysates pulled down by HA antibody, WB.

No constants are given. Whether binding was seen depends on the method and setting. In cells and extracts the contact can be indirect. Some binding calls cover weakened binding; strength is not graded here. For part of these data: Tags and fused reporters may be left off the sequences shown.

In the case of “β-catenin C-terminal fragment (667–781) (from UniProt Q02248 667-781) (domain or fragment)”, the binding entry in test [1] was “binds weakly”.

With “β-catenin N-terminal fragment (1–150) (from UniProt Q02248 1-150) (domain or fragment)”, in test [1], the binding entry is recorded as “binds weakly”.

“β-catenin, endogenous (from UniProt Q02248 1-781)”: the binding result in test [2] and in test [3] was “binds” in each case.

B1: β-catenin, endogenous, zebrafish (protein, UniProt F1QGH7 1-780)
chain: MATQSDLMELEMAMDPDRKAAVSHWQQQSYLDSGIHSGATTTAPSLSGKGNPEDDDVDNQVLYEWEQGFNQSFNQEQVADIDGQYAMTRAQRVRAAMFPETLDEGMQIPSTQFDSAHPTNVQRLAEPSQMLKHAVVNLINYQDDAELATRAIPELTKLLNDEDQVVVNKAAVMVHQLSKKEASRHAIMRSPQMVSAIVRTMQNTNDVETARCTSGTLHNLSHHREGLLAIFKSGGIPALVKMLGSPVDSVLFYAITTLHNLLLHQEGAKMAVRLAGGLQKMVALLNKTNVKFLAITTDCLQILAYGNQESKLIILASGGPQALVNIMRTYTYEKLLWTTSRVLKVLSVCSSNKPAIVEAGGMQALGLHLTDPSQRLVQNCLWTLRNLSDAATKQEGMEGLLGTLVQLLGSDDINVVTCAAGILSNLTCNNYKNKMMVCQVGGIEALVRTVLRAGDREDITEPAICALRHLTSRHQDAEMAQNAVRLHYGLPVVVKLLHPPSHWPLIKATVGLIRNLALCPANHAPLREQGAIPRLVQLLVRAHQDTQRRTSMGGTQQQFVEGVRMEEIVEGCTGALHILARDIHNRIVIRGLNTIPLFVQLLYSPIENIQRVAAGVLCELAQDKEAAEAIEAEGATAPLTELLHSRNEGVATYAAAVLFRMSEDKPQDYKKRLSVELTSSLFRTEPMTWNETGDLGLDIGAQGEPLGYRQDDPSYRSFHSGGYGQDAMGMDPMMEHEMAGHHPGPDYPVDGLPDLGHTQDLIDGLPPGDSNQLAWFDTDL
B1: in test [4], the binding entry is “binds”.

B2: FLAG-ADNP (HEK293T) (protein, UniProt Q9Z103 1-1108)
chain: MFQLPVNNLGSLRKARKTVKKILSDIGLEYCKEHIEDFKQFEPNDFYLKNTTWEDVGLWDPSLTKNQDYRTKPFCCSACPFSSKFFSAYKSHFRNVHSEDFENRILLNCPYCTFNADKKTLETHIKIFHAPNSSAPSSSLSTFKDKNKNDGLKPKQADNVEQAVYYCKKCTYRDPLYEIVRKHIYREHFQHVAAPYIAKAGEKSLNGAVSLGTNAREECNIHCKRCLFMPKSYEALVQHVIEDHERIGYQVTAMIGHTNVVVPRAKPLMLIAPKPQDKKGMGLPPRISSLASGNVRSLPSQQMVNRLSIPKPNLNSTGVNMMSNVHLQQNNYGVKSVGQSYGVGQSVRLGLGGNAPVSIPQQSQSVKQLLPSGNGRSFGLGAEQRPPAAARYSLQTANTSLPPGQVKSPSVSQSQASRVLGQSSSKPPPAATGPPPSNHCATQKWKICTICNELFPENVYSVHFEKEHKAEKVPAVANYIMKIHNFTSKCLYCNRYLPTDTLLNHMLIHGLSCPYCRSTFNDVEKMAAHMRMVHIDEEMGPKTDSTLSFDLTLQQGSHTNIHLLVTTYNLRDAPAESVAYHAQNNAPVPPKPQPKVQEKADVPVKSSPQAAVPYKKDVGKTLCPLCFSILKGPISDALAHHLRERHQVIQTVHPVEKKLTYKCIHCLGVYTSNMTASTITLHLVHCRGVGKTQNGQDKTNAPSRLNQSPGLAPVKRTYEQMEFPLLKKRKLEEDADSPSCFEEKPEEPVVLALDPKGHEDDSYEARKSFLTKYFNKQPYPTRREIEKLAASLWLWKSDIASHFSNKRKKCVRDCEKYKPGVLLGFNMKELNKVKHEMDFDAEWLFENHDEKDSRVNASKTVDKKHNLGKEDDSFSDSFEHLEEESNGSGSPFDPVFEVEPKIPSDNLEEPVPKVIPEGALESEKLDQKEEEEEEEEEDGSKYETIHLTEEPAKLMHDASDSEVDQDDVVEWKDGASPSESGPGSQQISDFEDNTCEMKPGTWSDESSQSEDARSSKPAAKKKATVQDDTEQLKWKNSSYGKVEGFWSKDQSQWENASENAERLPNPQIEWQNSTIDSEDGEQFDSMTDGVADPMHGSLTGVKLSSQQA
For the molecule B2, in test [5], the binding result is “binds”.
